Experimental data published in paper PMC5709735, “Real‐time detection of condensin‐driven DNA compaction reveals a multistep binding mechanism” (The EMBO Journal, 2017).
No constants are given. Whether binding was seen depends on the method and setting. Some results given as binding are weak or reduced against the parent protein; the word gives no strength.

Experiments:
Test in all cases: tandem affinity chromatography + SEC; subunits co-overexpressed in budding yeast; complexes purified from interphase cell extracts by the His12 tag on Brn1 and the triple StrepII tag on Smc4, followed by a gel filtration step
Brn1 (S. cerevisiae) = target: T1, Brn1 (S. cerevisiae) (UniProt P38170)
T1 sequence: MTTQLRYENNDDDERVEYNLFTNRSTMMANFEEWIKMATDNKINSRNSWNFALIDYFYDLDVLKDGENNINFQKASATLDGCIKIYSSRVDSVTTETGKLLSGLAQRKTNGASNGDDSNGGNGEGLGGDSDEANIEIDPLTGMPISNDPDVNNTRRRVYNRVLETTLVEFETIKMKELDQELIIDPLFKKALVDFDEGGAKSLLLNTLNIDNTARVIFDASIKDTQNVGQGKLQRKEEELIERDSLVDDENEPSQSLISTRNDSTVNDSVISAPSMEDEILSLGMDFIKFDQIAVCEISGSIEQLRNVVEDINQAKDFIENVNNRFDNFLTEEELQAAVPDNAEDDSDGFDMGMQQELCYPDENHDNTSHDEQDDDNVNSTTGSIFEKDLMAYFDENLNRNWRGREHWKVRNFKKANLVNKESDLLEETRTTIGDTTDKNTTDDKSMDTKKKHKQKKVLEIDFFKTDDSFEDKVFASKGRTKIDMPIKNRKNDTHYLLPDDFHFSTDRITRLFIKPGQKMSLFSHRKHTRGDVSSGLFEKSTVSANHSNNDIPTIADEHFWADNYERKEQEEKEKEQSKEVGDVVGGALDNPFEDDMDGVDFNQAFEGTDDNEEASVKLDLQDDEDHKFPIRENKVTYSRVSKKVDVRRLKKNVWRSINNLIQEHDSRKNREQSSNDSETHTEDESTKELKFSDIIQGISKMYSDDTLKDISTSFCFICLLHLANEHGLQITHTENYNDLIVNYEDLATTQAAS

[1] = target: T2, Smc4 Q302L (S. cerevisiae) (UniProt Q12267)
T2 sequence: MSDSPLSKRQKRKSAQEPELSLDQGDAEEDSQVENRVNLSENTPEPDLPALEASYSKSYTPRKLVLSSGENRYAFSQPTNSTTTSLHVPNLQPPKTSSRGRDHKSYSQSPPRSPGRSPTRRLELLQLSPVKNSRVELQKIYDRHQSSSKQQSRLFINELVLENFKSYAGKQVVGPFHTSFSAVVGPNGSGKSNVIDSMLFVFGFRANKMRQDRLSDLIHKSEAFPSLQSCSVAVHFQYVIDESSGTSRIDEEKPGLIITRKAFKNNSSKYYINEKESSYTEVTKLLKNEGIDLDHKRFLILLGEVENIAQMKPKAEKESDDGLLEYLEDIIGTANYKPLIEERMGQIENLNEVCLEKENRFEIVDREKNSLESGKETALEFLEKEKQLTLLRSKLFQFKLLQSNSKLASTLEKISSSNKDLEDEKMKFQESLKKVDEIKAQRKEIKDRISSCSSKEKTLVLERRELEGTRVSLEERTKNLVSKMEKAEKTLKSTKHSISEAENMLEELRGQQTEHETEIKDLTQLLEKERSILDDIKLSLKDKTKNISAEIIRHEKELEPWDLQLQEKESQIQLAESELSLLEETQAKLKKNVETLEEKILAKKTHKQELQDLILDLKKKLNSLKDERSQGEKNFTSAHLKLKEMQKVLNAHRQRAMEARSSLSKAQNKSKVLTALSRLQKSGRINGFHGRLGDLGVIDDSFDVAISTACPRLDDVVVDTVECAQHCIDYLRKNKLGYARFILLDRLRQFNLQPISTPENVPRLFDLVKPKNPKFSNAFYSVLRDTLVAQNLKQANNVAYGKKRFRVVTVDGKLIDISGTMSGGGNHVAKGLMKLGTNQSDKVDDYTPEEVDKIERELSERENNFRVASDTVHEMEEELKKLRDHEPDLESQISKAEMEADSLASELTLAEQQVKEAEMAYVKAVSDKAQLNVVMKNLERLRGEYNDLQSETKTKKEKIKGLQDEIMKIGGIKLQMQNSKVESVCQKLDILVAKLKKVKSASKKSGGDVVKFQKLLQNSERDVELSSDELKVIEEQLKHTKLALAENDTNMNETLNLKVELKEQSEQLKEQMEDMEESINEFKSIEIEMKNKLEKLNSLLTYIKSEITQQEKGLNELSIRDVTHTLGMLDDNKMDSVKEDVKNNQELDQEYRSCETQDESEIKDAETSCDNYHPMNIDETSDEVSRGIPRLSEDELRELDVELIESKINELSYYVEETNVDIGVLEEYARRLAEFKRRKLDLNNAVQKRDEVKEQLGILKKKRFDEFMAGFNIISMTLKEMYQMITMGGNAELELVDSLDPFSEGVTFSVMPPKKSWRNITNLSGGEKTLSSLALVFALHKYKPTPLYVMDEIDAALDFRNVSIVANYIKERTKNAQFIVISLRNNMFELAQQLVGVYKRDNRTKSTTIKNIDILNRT

[2] = target: T3, Brn1 K409D, R411D, K414D, K451D, K452D, K456D, K457D (S. cerevisiae) (UniProt P38170)
T3 sequence: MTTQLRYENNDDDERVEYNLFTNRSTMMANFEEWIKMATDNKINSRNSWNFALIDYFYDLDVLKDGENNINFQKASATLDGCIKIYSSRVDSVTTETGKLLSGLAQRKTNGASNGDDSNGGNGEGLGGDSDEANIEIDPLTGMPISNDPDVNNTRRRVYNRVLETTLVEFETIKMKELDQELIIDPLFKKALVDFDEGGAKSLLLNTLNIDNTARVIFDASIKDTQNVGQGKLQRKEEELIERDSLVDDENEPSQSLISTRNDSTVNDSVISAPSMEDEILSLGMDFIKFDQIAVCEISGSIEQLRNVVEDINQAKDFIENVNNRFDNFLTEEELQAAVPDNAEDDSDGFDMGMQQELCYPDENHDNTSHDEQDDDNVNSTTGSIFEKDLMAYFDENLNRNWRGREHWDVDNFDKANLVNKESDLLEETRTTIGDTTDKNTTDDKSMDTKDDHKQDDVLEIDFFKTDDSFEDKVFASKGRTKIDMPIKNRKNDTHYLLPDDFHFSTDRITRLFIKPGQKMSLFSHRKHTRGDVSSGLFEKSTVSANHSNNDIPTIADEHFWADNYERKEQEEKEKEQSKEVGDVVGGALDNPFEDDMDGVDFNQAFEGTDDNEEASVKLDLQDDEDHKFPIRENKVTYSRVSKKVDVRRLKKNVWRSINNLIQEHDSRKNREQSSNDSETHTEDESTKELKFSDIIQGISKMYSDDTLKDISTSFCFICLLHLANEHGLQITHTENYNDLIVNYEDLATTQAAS

Binder	binding (Brn1 (S. cerevisiae))	binding [1]	binding [2]
Smc2 Q147L (protein, UniProt P38989 1-1170) MKVEELIIDGFKSYATRTVITDWDPQFNAITGLNGSGKSNILDAICFVLGIASMSTVRASSLQDLIYKRGQAGVTKASVTIVFDNTDKSNSPIGFTNSPQISVTRQVVLGGTSKYLINGHRAPQQSVLQLFQSVQLNINNPNFLIMLGKITKVLNMKPSEILSLIEEAAGTKMFEDRREKAERTMSKKETKLQENRTLLTEEIEPKLEKLRNEKRMFLEFQSTQTDLEKTERIVVSYEYYNIKHKHTSIRETLENGETRMKMLNEFVKKTSEEIDSLNEDVEEIKLQKEKELHKEGTISKLENKENGLLNEISRLKTSLSIKVENLNDTTEKSKALESEIASSSAKLIEKKSAYANTEKDYKMVQEQLSKQRDLYKRKEELVSTLTTGISSTGAADGGYNAQLAKAKTELNEVSLAIKKSSMKMELLKKELLTIEPKLKEATKDNELNVKHVKQCQETCDKLRARLVEYGFDPSRIKDLKQREDKLKSHYYQTCKNSEYLKRRVTNLEFNYTKPYPNFEASFVHGVVGQLFQIDNDNIRYATALQTCAGGRLFNVVVQDSQTATQLLERGRLRKRVTIIPLDKIYTRPISSQVLDLAKKIAPGKVELAINLIRFDESITKAMEFIFGNSLICEDPETAKKITFHPKIRARSITLQGDVYDPEGTLSGGSRNTSESLLVDIQKYNQIQKQIETIQADLNHVTEELQTQYATSQKTKTIQSDLNLSLHKLDLAKRNLDANPSSQIIARNEEILRDIGECENEIKTKQMSLKKCQEEVSTIEKDMKEYDSDKGSKLNELKKELKLLAKELEEQESESERKYDLFQNLELETEQLSSELDSNKTLLHNHLKSIESLKLENSDLEGKIRGVEDDLVTVQTELNEEKKRLMDIDDELNELETLIKKKQDEKKSSELELQKLVHDLNKYKSNTNNMEKIIEDLRQKHEFLEDFDLVRNIVKQNEGIDLDTYRERSKQLNEKFQELRKKVNPNIMNMIENVEKKEAALKTMIKTIEKDKMKIQETISKLNEYKRETLVKTWEKVTLDFGNIFADLLPNSFAKLVPCEGKDVTQGLEVKVKLGNIWKESLIELSGGQRSLIALSLIMALLQFRPAPMYILDEVDAALDLSHTQNIGHLIKTRFKGSQFIVVSLKEGMFANANRVFRTRFQDGTSVVSIM	binds	binds	–
Ycg1 (protein, UniProt Q06680 1-1035) MQDPDGIDINTKIFNSVAEVFQKAQGSYAGHRKHIAVLKKIQSKAVEQGYEDAFNFWFDKLVTKILPLKKNEIIGDRIVKLVAAFIASLERELILAKKQNYKLTNDEEGIFSRFVDQFIRHVLRGVESPDKNVRFRVLQLLAVIMDNIGEIDESLFNLLILSLNKRIYDREPTVRIQAVFCLTKFQDEEQTEHLTELSDNEENFEATRTLVASIQNDPSAEVRRAAMLNLINDNNTRPYILERARDVNIVNRRLVYSRILKSMGRKCFDDIEPHIFDQLIEWGLEDRELSVRNACKRLIAHDWLNALDGDLIELLEKLDVSRSSVCVKAIEALFQSRPDILSKIKFPESIWKDFTVEIAFLFRAIYLYCLDNNITEMLEENFPEASKLSEHLNHYILLRYHHNDISNDSQSHFDYNTLEFIIEQLSIAAERYDYSDEVGRRSMLTVVRNMLALTTLSEPLIKIGIRVMKSLSINEKDFVTMAIEIINDIRDDDIEKQEQEEKIKSKKINRRNETSVDEEDENGTHNDEVNEDEEDDNISSFHSAVENLVQGNGNVSESDIINNLPPEKEASSATIVLCLTRSSYMLELVNTPLTENILIASLMDTLITPAVRNTAPNIRELGVKNLGLCCLLDVKLAIDNMYILGMCVSKGNASLKYIALQVIVDIFSVHGNTVVDGEGKVDSISLHKIFYKVLKNNGLPECQVIAAEGLCKLFLADVFTDDDLFETLVLSYFSPINSSNEALVQAFAFCIPVYCFSHPAHQQRMSRTAADILLRLCVLWDDLQSSVIPEVDREAMLKPNIIFQQLLFWTDPRNLVNQTGSTKKDTVQLTFLIDVLKIYAQIEKKEIKKMIITNINAIFLSSEQDYSTLKELLEYSDDIAENDNLDNVSKNALDKLRNNLNSLIEEINERSETQTKDENNTANDQYSSILGNSFNKSSNDTIEHAADITDGNNTELTKTTVNISAVDNTTEQSNSRKRTRSEAEQIDTSKNLENMSIQDTSTVAKNVSFVLPDEKSDAMSIDEEDKDSESFSEVC	binds	binds	binds
